Data from PubChem BioAssay AID248 (DTP/NCI, 2004).
The list shows only some results of the screen, not a fair sample: it gathers tests that were run many times, whatever their T/C, doses with no T/C, and many T/C values between a quarter and a half above the control. Further doses and runs are listed elsewhere. T/C gives the treated animals as a percentage of the vehicle group. Some entries give survivors of the animals treated and no T/C: the source files T/C as zero there, which appears to mark a toxic dose or a test without result, not a measured value. Some survivor counts are full or nearly so, which does not show that the dose was tolerated: survival well below the control is almost never listed, so the zero probably covers shortened survival too. Counts of survivors are from the toxicity check (mostly the fifth day) where no day follows; animals may have died later. Schedule codes are those of the source, read here as Q, the interval in days (D) or hours (H), X, the number of doses. Some entries hold several experiments; the values are given in rising order. Some schedule codes hold Z or #, which are not explained here. Where survival is the endpoint, this PubChem deposit counts one and a half times the control or more as active, and values a quarter to a half above the control carry no call in these data; other NCI protocols may use other cut-offs. Some T/C values are followed by the survivors on the day toxicity was checked, most often the fifth; where none is given, no animal had died by that day.

Test system: L1210 leukemia ip in BDF1 mice, survival T/C
Test: NCI In Vivo Anticancer Drug Screen. Data for tumor model L1210 Leukemia (intraperitoneal) in B6D2F1 (BDF1) mice
Conditions: T/C endpoint: mean survival time, higher T/C = longer survival
[1] = dose: 100.0 mg/kg/injection, schedule: Q04DX003 (ip), vehicle: Klucel (hydroxypropylcellulose) (HPC)
[2] = dose: 200.0 mg/kg/injection, schedule: Q04DX003 (ip), vehicle: Klucel (hydroxypropylcellulose) (HPC)
[3] = dose: 400.0 mg/kg/injection, schedule: Q04DX003 (ip), vehicle: Klucel (hydroxypropylcellulose) (HPC)
[4] = dose: 400.0 mg/kg/injection, schedule: Q04DX002 (ip), vehicle: saline with Tween-80
[5] = dose: 50.0 mg/kg/injection, schedule: Q01DX009 (ip), vehicle: saline
[6] = dose: 100.0 mg/kg/injection, schedule: Q01DX009 (ip), vehicle: saline
[7] = dose: 400.0 mg/kg/injection, schedule: Q04DX003 (ip), vehicle: saline
[8] = dose: 400.0 mg/kg/injection, schedule: Q01DX009 (ip), vehicle: saline with Tween-80
[9] = dose: 400.0 mg/kg/injection, schedule: Q01DX009 (ip), vehicle: Klucel (hydroxypropylcellulose) (HPC)
[10] = dose: 200.0 mg/kg/injection, schedule: Q01DX001 (ip), vehicle: carboxymethylcellulose (CMC)
[11] = dose: 400.0 mg/kg/injection, schedule: Q01DX001 (ip), vehicle: carboxymethylcellulose (CMC)
[12] = dose: 400.0 mg/kg/injection, schedule: Q01DX001 (ip), vehicle: saline

What does the source list for `Oc1ccc(N=Cc2ccccc2O)cc1`?
T/C (dose: 175.0 mg/kg/injection, schedule: Q01DX Z (ip), vehicle: carboxymethylcellulose (CMC)): 125 % of control; T/C (dose: 270.0 mg/kg/injection, schedule: Q01DX015 (ip), vehicle: steroid suspending solution): 137 % of control; T/C (dose: 400.0 mg/kg/injection, schedule: Q01DX015 (ip), vehicle: steroid suspending solution): 141 % of control; survivor count (dose: 600.0 mg/kg/injection, schedule: Q01DX Z (ip), vehicle: carboxymethylcellulose (CMC)): 0 of 6

How did the T/C (dose: 3.13 mg/kg/injection, schedule: Q01DX009 (ip), vehicle: Klucel (hydroxypropylcellulose) (HPC)) turn out when `Cc1ccnc(NS(=O)(=O)c2ccc(N=Nc3nc4[nH]c(N)nc(=S)c4[nH]3)cc2)n1` was run?
Its T/C is 134 and 145 % of control.

What about the T/C (dose: 6.25 mg/kg/injection, schedule: Q01DX009 (ip), vehicle: Klucel (hydroxypropylcellulose) (HPC)) of the same compound?
The T/C was 125 and 136 % of control.

And the survivor count (dose: 25.0 mg/kg/injection, schedule: Q01DX009 (ip), vehicle: Klucel (hydroxypropylcellulose) (HPC))?
Its survivor count is 6 of 6.

What about the T/C (dose: 25.0 mg/kg/injection, schedule: Q04DX003 (ip), vehicle: Klucel (hydroxypropylcellulose) (HPC)) of the same compound?
Its T/C is 146 % of control.

What about the survivor count (dose: 50.0 mg/kg/injection, schedule: Q01DX009 (ip), vehicle: Klucel (hydroxypropylcellulose) (HPC)) of the same compound?
Its survivor count is 6 of 6.

What about the survivor count [1] of the same compound?
The survivor count was 2 of 6.

And the survivor count [2]?
The survivor count was 0 of 6.

And the survivor count [3]?
Its survivor count is 0 of 6.

For `O=C1C=Cc2ccccc2/C1=C/c1nc(-c2ccc(Cl)cc2)oc1O`, which survivor count (dose: 400.0 mg/kg/injection, schedule: Q04DX002 (ip), vehicle: Klucel (hydroxypropylcellulose) (HPC)) is on record?
Its survivor count is 3 of 3.

With `CC(C)COC(CN)C(Cl)(Cl)Cl` (stereo not given) as the compound, how does the survivor count (dose: 400.0 mg/kg/injection, schedule: Q01DX001 (ip), vehicle: saline with Tween-80) read?
Its survivor count is 1 of 6.

And the survivor count [4]?
The survivor count was 1 of 6 and 1 of 3.

With `CCC(=O)OCC1OC(n2cnc3c(=S)nc(N)[nH]c32)C(OC(=O)CC)C1OC(=O)CC` (stereo not given) as the compound, how does the T/C (dose: 2.0 mg/kg/injection, schedule: Q01DX Z (ip), vehicle: carboxymethylcellulose (CMC)) read?
The T/C was 126 and 133 % of control.

What about the T/C (dose: 5.0 mg/kg/injection, schedule: Q01DX Z (ip), vehicle: carboxymethylcellulose (CMC)) of the same compound?
The T/C was 137, 140, 146 % of control.

What about the T/C (dose: 8.0 mg/kg/injection, schedule: Q01DX Z (ip), vehicle: carboxymethylcellulose (CMC)) of the same compound?
The T/C was 128 and 136 % of control.

What about the T/C (dose: 18.0 mg/kg/injection, schedule: Q01DX Z (ip), vehicle: carboxymethylcellulose (CMC)) of the same compound?
The T/C was 146 % of control [5 of 6 alive].

How did the survivor count (dose: 200.0 mg/kg/injection, schedule: Q04DX003 (ip), vehicle: saline with Tween-80) turn out when `CC(=O)N=C1C=C(NC(C)=O)C(=O)c2ncccc21` was run?
The survivor count was 1 of 6.

Which results are given for `Cc1nc2ccc(O)cc2cc1CBr`?
survivor count [5]: 1 of 6; survivor count [6]: 0 of 6; survivor count (dose: 100.0 mg/kg/injection, schedule: Q04DX003 (ip), vehicle: saline): 1 of 6; survivor count (dose: 200.0 mg/kg/injection, schedule: Q04DX003 (ip), vehicle: saline): 0 of 6; survivor count [7]: 0 of 6

`COc1cccc(C(=O)O)c1O` was tested. Which survivor count (dose: 300.0 mg/kg/injection, schedule: Q01DX001 (ip), vehicle: acetone) did it give?
Its survivor count is 3 of 6.

`Cn1c(=O)c2c(nc(OC3CCCCCC3)n2C)n(C)c1=O` was tested. Which survivor count (dose: 400.0 mg/kg/injection, schedule: Q01DX001 (ip), vehicle: other) did it give?
The survivor count was 2 of 4.

Which results are given for `Cc1c(C(=O)Nc2ccc(C3=NCCN3)cc2)cccc1C(=O)Nc1ccc(C2=NCCN2)cc1`?
T/C (dose: 190.0 mg/kg/injection, schedule: Q01DX Z (ip), vehicle: carboxymethylcellulose (CMC)): 129 % of control [4 of 6 alive]; survivor count (dose: 380.0 mg/kg/injection, schedule: Q01DX Z (ip), vehicle: carboxymethylcellulose (CMC)): 0 of 6

For `CCN(CC)/N=N/c1[nH]ncc1C(N)=O`, which T/C (dose: 100.0 mg/kg/injection, schedule: Q01DX009 (ip), vehicle: saline with Tween-80) is on record?
The T/C was 126 % of control.

What about the T/C (dose: 133.0 mg/kg/injection, schedule: Q01DX009 (ip), vehicle: saline with Tween-80) of the same compound?
Its T/C is 132 % of control.

And the T/C (dose: 200.0 mg/kg/injection, schedule: Q01DX009 (ip), vehicle: saline with Tween-80, evaluated on day 20)?
Its T/C is 144 % of control.

What about the T/C (dose: 200.0 mg/kg/injection, schedule: Q01DX009 (ip), vehicle: saline with Tween-80, evaluated on day 30) of the same compound?
Its T/C is 126 % of control.

What about the survivor count [8] of the same compound?
Its survivor count is 6 of 6.

Which survivor count [9] does the source give for `CC(=O)c1ccc(Cl)c([N+](=O)[O-])c1` here?
Its survivor count is 6 of 6.

`CCCCCCOC(=O)C(N)Cc1ccc(N(CCCl)CCCl)cc1` (stereo not given) was tested. Which T/C (dose: 22.5 mg/kg/injection, schedule: Q01DX009 (ip), vehicle: other) did it give?
Its T/C is 140 % of control.

And the T/C (dose: 45.0 mg/kg/injection, schedule: Q01DX001 (ip), vehicle: other)?
Its T/C is 128 % of control.

Which results are given for `CN1C(=O)C/C(=C/[N+](=O)[O-])c2ccccc21`?
survivor count [10]: 1 of 4; survivor count [11]: 0 of 4

How did the survivor count (dose: 400.0 mg/kg/injection, schedule: Q04DX003 (ip), vehicle: carboxymethylcellulose (CMC)) turn out when `N#CC1(C(N)=O)OC1c1ccccc1Cl` (stereo not given) was run?
The survivor count was 1 of 6.

How did the survivor count (dose: 25.0 mg/kg/injection, schedule: Q01DX005 (ip), vehicle: saline) turn out when `OCC1OC(n2cnc3c([Se]Cc4ccccc4)ncnc32)C(O)C1O` (stereo not given) was run?
Its survivor count is 0 of 6.

What about the survivor count (dose: 25.0 mg/kg/injection, schedule: Q01DX009 (ip), vehicle: saline) of the same compound?
The survivor count was 0 of 6.

And the survivor count (dose: 50.0 mg/kg/injection, schedule: Q01DX005 (ip), vehicle: saline)?
The survivor count was 0 of 6.

What about the survivor count [5] of the same compound?
Its survivor count is 0 of 6.

And the survivor count [6]?
Its survivor count is 0 of 6.

How did the survivor count [8] turn out when `O=C(Nc1cccc(F)c1)Nc1ccc(C(=O)O)c(O)c1` was run?
Its survivor count is 0 of 6.

For `CCNCCn1cccc1`, which survivor count [7] is on record?
Its survivor count is 1 of 6.

For `N#Cc1cc[n+](Cc2ccc([N+](=O)[O-])cc2)cc1`, which survivor count [12] is on record?
The survivor count was 0 of 6.

With `Cc1nc(Cl)c(C#N)c(C(F)(F)F)c1N` as the compound, how does the survivor count (dose: 200.0 mg/kg/injection, schedule: Q01DX Z (ip), vehicle: carboxymethylcellulose (CMC)) read?
Its survivor count is 2 of 6.

How did the survivor count (dose: 100.0 mg/kg/injection, schedule: Q04DX002 (ip), vehicle: saline with Tween-80) turn out when `COc1ccc(CCNC(=S)NN)cc1OC` was run?
Its survivor count is 3 of 3.

And the survivor count [4]?
The survivor count was 0 of 3.

What does the source list for `O=C(CC(O)(C(F)(F)F)C(F)(F)F)c1ccccc1[N+](=O)[O-]`?
survivor count (dose: 50.0 mg/kg/injection, schedule: Q01DX009 (ip), vehicle: DMSO): 6 of 6; survivor count (dose: 200.0 mg/kg/injection, schedule: Q04DX003 (ip), vehicle: DMSO): 0 of 6; survivor count (dose: 400.0 mg/kg/injection, schedule: Q04DX003 (ip), vehicle: DMSO): 0 of 6

Which results are given for `O=C1CCC(=O)N1SC(Cl)(Cl)Cl`?
survivor count (dose: 160.0 mg/kg/injection, schedule: Q01DX009 (ip), vehicle: saline): 6 of 6; survivor count (dose: 200.0 mg/kg/injection, schedule: Q04DX002 (ip), vehicle: saline with Tween-80): 3 of 3; survivor count [4]: 2 of 3

`COc1cccc(/C=N\NC(=O)CCCC(=O)N/N=C/c2cccc(OC)c2)c1` was tested. Which survivor count (dose: 200.0 mg/kg/injection, schedule: Q01DX001 (ip), vehicle: saline) did it give?
Its survivor count is 4 of 4.

`CN=C1C=C(NC)C(F)(F)C1(F)F` was tested. Which survivor count [1] did it give?
Its survivor count is 0 of 6.

What about the survivor count [2] of the same compound?
The survivor count was 0 of 6.

And the survivor count [3]?
The survivor count was 0 of 6.

How did the survivor count (dose: 200.0 mg/kg/injection, schedule: Q01DX009 (ip), vehicle: Klucel (hydroxypropylcellulose) (HPC)) turn out when `O=C(c1ccccc1)C1C(c2ccccc2)N1Cc1ccccc1` (stereo not given) was run?
The survivor count was 6 of 6.

What about the survivor count [9] of the same compound?
Its survivor count is 0 of 6.

And the survivor count [3]?
Its survivor count is 3 of 6.

For `Clc1ncnc2c1nnn2C1CCCC1`, which survivor count [12] is on record?
The survivor count was 2 of 6.

`CCOC(=O)C(CCC#N)(CCC#N)C(C)=O` was tested. Which survivor count [3] did it give?
Its survivor count is 6 of 6.

Which survivor count (dose: 100.0 mg/kg/injection, schedule: Q01DX001 (ip), vehicle: carboxymethylcellulose (CMC)) does the source give for `COC(c1ccccc1)[CH]([Hg][Br])C(=O)OC1CC2CCC1(C)C2(C)C` (stereo not given) here?
Its survivor count is 1 of 4.

What about the survivor count [10] of the same compound?
Its survivor count is 1 of 4.

And the survivor count [11]?
The survivor count was 2 of 4.

For `Cc1ccc2[nH]c(=S)n(-c3ccc(C)c(Cl)c3)c(=O)c2c1`, which survivor count (dose: 100.0 mg/kg/injection, schedule: Q01DX009 (ip), vehicle: carboxymethylcellulose (CMC)) is on record?
Its survivor count is 3 of 3.
